Experimental data reported in patent US20080161403A1, “1-(1,2 Diphenyl-Ethyl)-3-(2-Hydroxyethyl)-Thiourea Compounds For Combating Animal Pests” (priority 2005, published 2008).
Some results were stated once for a whole list of compounds, not compound by compound.

Legend:
Type in all cases: in vivo
[1] = tested on: Myzus persicae; assay: Green peach aphid (Myzus persicae) mortality on dipped pepper plants; details: 300 ppm; pepper leaves dipped; after 5 days
[2] = tested on: Aphis gossypii; assay: Cotton aphid (Aphis gossypii) mortality on dipped cotton plants; details: 300 ppm; cotton cotyledons dipped; after 5 days
[3] = tested on: Aphis fabae; assay: Bean aphid (Aphis fabae) mortality on dipped nasturtium plants; details: 300 ppm; nasturtium foliage and stem dipped; after 3 days

SMILES	mortality in comparison with untreated controls [1]	mortality in comparison with untreated controls [2]	mortality in comparison with untreated controls [3]
OCCNC(=S)NC(Cc1ccccc1)c1ccccc1 (centres unmarked) [Example 1]	over 80%		
Cc1ccc(CC(NC(=S)NCCO)c2ccccc2)cc1 (centres unmarked) [Example 2]	over 80%		
OCCNC(=S)NC(Cc1cccc(Cl)c1)c1ccccc1 (centres unmarked) [Example 10]	over 80%	over 80%	
OCCNC(=S)NC(Cc1ccccc1Cl)c1ccc(F)cc1 (centres unmarked) [Example 14]	over 80%		
OCCNC(=S)NC(Cc1ccc(F)c(F)c1)c1ccccc1 (centres unmarked) [Example 15]	over 80%		
OCCNC(=S)NC(Cc1ccc(F)c(Cl)c1)c1ccccc1 (centres unmarked) [Example 16]	over 80%		
OCCNC(=S)NC(Cc1cccc(C(F)(F)F)c1)c1ccccc1 (centres unmarked) [Example 17]	over 80%	over 80%	
OCCNC(=S)NC(Cc1cc(Cl)cc(Cl)c1)c1ccccc1 (centres unmarked) [Example 18]	over 80%	over 80%	
Cc1cccc(CC(NC(=S)NCCO)c2cccc(Cl)c2Cl)c1 (centres unmarked) [Example 22]	over 80%	over 80%	
OCCNC(=S)NC(Cc1ccccc1)c1cccc(Cl)c1Cl (centres unmarked) [Example 23]	over 80%	over 80%	
Cc1cccc(CC(NC(=S)NCCO)c2cccc(Cl)c2)c1 (centres unmarked) [Example 34]	over 80%	over 80%	
OCCNC(=S)NC(Cc1ccccc1)c1cccc(F)c1 (centres unmarked) [Example 36]	over 80%		
Cc1cccc(CC(NC(=S)NCCO)c2ccccc2C)c1 (centres unmarked) [Example 38]	over 80%		
Cc1cccc(CC(NC(=S)NCCO)c2ccccc2F)c1 (centres unmarked) [Example 39]	over 80%	over 80%	
Cc1cccc(CC(NC(=S)NCCO)c2cccc(F)c2)c1 (centres unmarked) [Example 40]	over 80%	over 80%	
Cc1cccc(CC(NC(=S)NCCO)c2cccc(C)c2)c1 (centres unmarked) [Example 41]	over 80%	over 80%	
COc1ccccc1C(Cc1cccc(C)c1)NC(=S)NCCO (centres unmarked) [Example 44]	over 80%		
OCCNC(=S)NC(Cc1ccccc1)c1cccc(F)c1F (centres unmarked) [Example 49]	over 80%		
Cc1c(F)cccc1C(Cc1ccccc1)NC(=S)NCCO (centres unmarked) [Example 50]	over 80%		

SMILES	mortality in comparison with untreated controls [1]	mortality in comparison with untreated controls [2]	mortality in comparison with untreated controls [3]
Cc1cccc(C(Cc2ccccc2)NC(=S)NCCO)c1C (centres unmarked) [Example 52]	over 80%		
Cc1cccc(CC(NC(=S)NCCO)c2cccc(F)c2F)c1 (centres unmarked) [Example 53]	over 80%	over 80%	
Cc1cccc(CC(NC(=S)NCCO)c2cccc(C)c2C)c1 (centres unmarked) [Example 54]	over 80%	over 80%	
Cc1cccc(CC(NC(=S)NCCO)c2ccccc2Br)c1 (centres unmarked) [Example 55]	over 80%	over 80%	
OCCNC(=S)NC(Cc1ccc2c(c1)OCO2)c1ccccc1 (centres unmarked) [Example 57]	over 80%		
Cc1ccc(CC(NC(=S)NCCO)c2cccc(Cl)c2Cl)cc1C (centres unmarked) [Example 58]	over 80%	over 80%	
Cc1ccc(CC(NC(=S)NCCO)c2ccccc2)cc1C (centres unmarked) [Example 59]	over 80%	over 80%	
OCCNC(=S)NC(Cc1ccccc1)c1cc(Cl)ccc1Cl (centres unmarked) [Example 60]	over 80%		
OCCNC(=S)NC(Cc1ccccc1)c1ccc(Br)cc1Br (centres unmarked) [Example 61]	over 80%		
Cc1ccc(CC(NC(=S)NCCO)c2cccc(Cl)c2Cl)cc1 (centres unmarked) [Example 64]	over 80%	over 80%	
COc1ccc(CC(NC(=S)NCCO)c2cccc(Cl)c2Cl)cc1 (centres unmarked) [Example 66]	over 80%	over 80%	
Cc1cc(C)cc(CC(NC(=S)NCCO)c2cccc(Cl)c2Cl)c1 (centres unmarked) [Example 72]	over 80%	over 80%	
Cc1cccc(CC(NC(=S)NCCO)c2cc(C)cc(C)c2)c1 (centres unmarked) [Example 73]	over 80%	over 80%	
Cc1cccc(C(Cc2cc(Cl)ccc2Cl)NC(=S)NCCO)c1C (centres unmarked) [Example 76]	over 80%		
Cc1cc(CC(NC(=S)NCCO)c2cccc(Cl)c2Cl)ccc1F (centres unmarked) [Example 78]	over 80%	over 80%	
Cc1cccc(CC(NC(=S)NCCO)c2cc(C)ccc2F)c1 (centres unmarked) [Example 80]	over 80%		over 90%
Cc1cc(C)cc(CC(NC(=S)NCCO)c2cccc(C)c2C)c1 (centres unmarked) [Example 83]	over 80%	over 80%	
Cc1cc(C)cc(CC(NC(=S)NCCO)c2cc(C)ccc2F)c1 (centres unmarked) [Example 85]	over 80%	over 80%	
